Laboratory results taken from patent US20250163176A1, “MONOCLONAL ANTIBODY AGAINST TROP2 AND USE THEREOF” (INSTITUTE OF MEDICAL BIOTECHNOLOGY, CHINESE ACADEMY OF …, priority 2022, published 2025).
These are yes or no findings as the source states them, for the method shown. Some results given as binding are weak or reduced against the parent protein; the word gives no strength.

Legend:
Trop2 antigen [1] = molecular target: T1, Trop2 antigen (human, UniProt P09758 27-274, limits assumed); test: indirect ELISA, Trop2 antigen coated at 0.4, 0.2 and 0.1 µg/ml
T1 construct: also called human trophoblast cell surface antigen 2; tumor-associated calcium signal transducer 2
T1 sequence (looked up): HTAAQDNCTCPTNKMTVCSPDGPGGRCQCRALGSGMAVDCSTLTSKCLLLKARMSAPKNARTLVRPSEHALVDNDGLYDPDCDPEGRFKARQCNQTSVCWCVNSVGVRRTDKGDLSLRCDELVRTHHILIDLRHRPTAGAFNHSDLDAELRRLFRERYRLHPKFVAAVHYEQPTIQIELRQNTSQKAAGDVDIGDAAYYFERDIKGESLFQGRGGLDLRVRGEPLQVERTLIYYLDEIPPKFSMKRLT

MDA-MB-231 (human) [2] = molecular target: MDA-MB-231 (human) (UniProt P09758); test: flow cytometry on MDA-MB-231 cells, FITC goat anti-mouse IgG
Trop2 antigen [3] = molecular target: T1, Trop2 antigen; test: Biacore SPR, anti-Trop2 antibody amine-coupled to a CM5 chip, Trop2 antigen as analyte
MDA-MB-231 (human) [4] = molecular target: MDA-MB-231 (human) (UniProt P09758); test: immunofluorescence on fixed MDA-MB-231 cells, antibody at 10 µg/mL, rhodamine goat anti-mouse IgG
Trop2 antigen [5] = molecular target: T1, Trop2 antigen; test: indirect ELISA, dilution series of the antibody (x axis: dilution rate, no concentration)

Measured: binding

B1: anti-Trop2 monoclonal antibody IMB1636 (antibody, V domains shown)
VH: QVQLQQSGAELVRPGTSVKISCKASGYTFTNYWLGWVKQRPGHGLEWIGNIFPGGGYTNYNEKFKGKAILTADTSSSTAYMQLSSLTSEDSGVYFCAREGVMDYWGQGTTLTVSS
VL: DILLTQSPAILSVSPGERVSFSCRASQNIGTSIHWYQQRTNGFPRLLIKYASESISGIPSRFSGSGSGTDFTLSINSVESEDIADYYCQQSYSWPFTFGSGTKLEIK
notes: also called mouse-derived anti-Trop2 monoclonal antibody; anti-Trop2 antibody
binds: all assays above
